Experimental data taken from the supplement of paper PMC12823440, “Inhibitors supercharge kinase turnover through native proteolytic circuits” (Nature, 2025).
This is one part of the list. The calls rarely recur for the same compound in another form.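 In K562 cells expressing nanoluciferase-fused kinases, luminescence was recorded at 4 h intervals between 2 and 18 h, normalized as percent of control with DMSO at 100% and a positive control at 0%. A significant (2 sigma) signal drop marks a time point as decreased. The authors' rule for a hit is not shown and takes in more than the number of time points.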

By UniProt entry, the sequences of proteins in these tests, tags left out. Where a name states a change or a piece, a line headed by the entry shows the natural chain unless it says otherwise.
UniProt O96017, whole entry: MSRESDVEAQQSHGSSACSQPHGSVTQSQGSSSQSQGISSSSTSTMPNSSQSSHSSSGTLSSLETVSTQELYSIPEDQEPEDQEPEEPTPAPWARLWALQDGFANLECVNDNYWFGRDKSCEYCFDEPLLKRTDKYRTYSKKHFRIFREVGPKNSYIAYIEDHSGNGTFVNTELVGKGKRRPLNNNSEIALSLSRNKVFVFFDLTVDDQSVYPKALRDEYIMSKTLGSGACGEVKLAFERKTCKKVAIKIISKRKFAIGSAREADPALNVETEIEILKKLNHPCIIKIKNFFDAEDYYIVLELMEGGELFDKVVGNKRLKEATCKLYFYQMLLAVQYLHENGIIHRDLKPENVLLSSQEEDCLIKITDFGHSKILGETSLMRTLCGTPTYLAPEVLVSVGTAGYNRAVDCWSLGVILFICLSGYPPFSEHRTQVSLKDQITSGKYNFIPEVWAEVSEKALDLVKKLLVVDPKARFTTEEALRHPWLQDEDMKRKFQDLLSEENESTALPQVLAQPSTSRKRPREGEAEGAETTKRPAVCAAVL
UniProt P48730: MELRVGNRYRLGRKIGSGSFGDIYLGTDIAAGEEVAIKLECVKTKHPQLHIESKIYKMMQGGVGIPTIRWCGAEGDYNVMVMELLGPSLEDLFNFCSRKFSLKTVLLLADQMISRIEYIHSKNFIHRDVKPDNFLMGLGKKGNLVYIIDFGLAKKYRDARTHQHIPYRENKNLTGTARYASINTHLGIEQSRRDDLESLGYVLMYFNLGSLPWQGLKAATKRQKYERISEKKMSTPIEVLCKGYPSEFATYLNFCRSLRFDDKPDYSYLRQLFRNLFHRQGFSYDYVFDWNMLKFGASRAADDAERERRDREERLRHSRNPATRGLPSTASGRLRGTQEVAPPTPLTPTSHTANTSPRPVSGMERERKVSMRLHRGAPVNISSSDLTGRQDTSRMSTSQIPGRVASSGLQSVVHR
UniProt P07947, whole entry, looked up: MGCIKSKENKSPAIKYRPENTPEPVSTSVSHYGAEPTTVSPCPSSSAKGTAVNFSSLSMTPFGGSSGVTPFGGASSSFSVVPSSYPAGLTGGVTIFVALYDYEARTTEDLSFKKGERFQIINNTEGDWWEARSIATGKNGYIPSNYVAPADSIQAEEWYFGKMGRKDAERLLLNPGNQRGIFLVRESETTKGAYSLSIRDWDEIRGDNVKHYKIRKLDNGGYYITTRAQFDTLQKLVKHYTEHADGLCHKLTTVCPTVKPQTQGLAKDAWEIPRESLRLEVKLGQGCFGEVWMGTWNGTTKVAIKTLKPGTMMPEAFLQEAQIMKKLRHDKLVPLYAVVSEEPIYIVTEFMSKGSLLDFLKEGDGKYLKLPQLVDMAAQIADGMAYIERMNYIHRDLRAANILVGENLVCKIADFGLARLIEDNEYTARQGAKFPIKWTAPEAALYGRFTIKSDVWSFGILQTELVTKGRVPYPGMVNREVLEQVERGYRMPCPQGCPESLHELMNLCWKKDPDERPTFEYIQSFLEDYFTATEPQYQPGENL
UniProt P53667: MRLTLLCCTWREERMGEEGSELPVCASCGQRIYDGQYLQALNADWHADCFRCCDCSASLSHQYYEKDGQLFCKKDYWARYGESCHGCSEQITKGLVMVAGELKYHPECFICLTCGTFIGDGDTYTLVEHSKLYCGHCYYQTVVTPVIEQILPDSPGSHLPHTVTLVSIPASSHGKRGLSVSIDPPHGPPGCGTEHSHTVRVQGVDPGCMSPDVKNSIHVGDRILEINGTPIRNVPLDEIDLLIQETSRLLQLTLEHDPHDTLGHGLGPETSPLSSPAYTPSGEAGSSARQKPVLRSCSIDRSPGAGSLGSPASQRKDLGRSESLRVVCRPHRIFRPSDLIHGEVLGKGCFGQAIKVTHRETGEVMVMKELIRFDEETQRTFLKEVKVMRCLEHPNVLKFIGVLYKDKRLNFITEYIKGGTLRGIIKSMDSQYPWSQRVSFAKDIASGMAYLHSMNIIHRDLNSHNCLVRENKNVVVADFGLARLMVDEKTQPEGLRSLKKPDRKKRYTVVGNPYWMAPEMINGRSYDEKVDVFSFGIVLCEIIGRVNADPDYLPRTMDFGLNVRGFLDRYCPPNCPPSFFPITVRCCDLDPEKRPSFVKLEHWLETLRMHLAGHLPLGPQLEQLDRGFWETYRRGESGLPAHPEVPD
UniProt P42356, whole entry, looked up: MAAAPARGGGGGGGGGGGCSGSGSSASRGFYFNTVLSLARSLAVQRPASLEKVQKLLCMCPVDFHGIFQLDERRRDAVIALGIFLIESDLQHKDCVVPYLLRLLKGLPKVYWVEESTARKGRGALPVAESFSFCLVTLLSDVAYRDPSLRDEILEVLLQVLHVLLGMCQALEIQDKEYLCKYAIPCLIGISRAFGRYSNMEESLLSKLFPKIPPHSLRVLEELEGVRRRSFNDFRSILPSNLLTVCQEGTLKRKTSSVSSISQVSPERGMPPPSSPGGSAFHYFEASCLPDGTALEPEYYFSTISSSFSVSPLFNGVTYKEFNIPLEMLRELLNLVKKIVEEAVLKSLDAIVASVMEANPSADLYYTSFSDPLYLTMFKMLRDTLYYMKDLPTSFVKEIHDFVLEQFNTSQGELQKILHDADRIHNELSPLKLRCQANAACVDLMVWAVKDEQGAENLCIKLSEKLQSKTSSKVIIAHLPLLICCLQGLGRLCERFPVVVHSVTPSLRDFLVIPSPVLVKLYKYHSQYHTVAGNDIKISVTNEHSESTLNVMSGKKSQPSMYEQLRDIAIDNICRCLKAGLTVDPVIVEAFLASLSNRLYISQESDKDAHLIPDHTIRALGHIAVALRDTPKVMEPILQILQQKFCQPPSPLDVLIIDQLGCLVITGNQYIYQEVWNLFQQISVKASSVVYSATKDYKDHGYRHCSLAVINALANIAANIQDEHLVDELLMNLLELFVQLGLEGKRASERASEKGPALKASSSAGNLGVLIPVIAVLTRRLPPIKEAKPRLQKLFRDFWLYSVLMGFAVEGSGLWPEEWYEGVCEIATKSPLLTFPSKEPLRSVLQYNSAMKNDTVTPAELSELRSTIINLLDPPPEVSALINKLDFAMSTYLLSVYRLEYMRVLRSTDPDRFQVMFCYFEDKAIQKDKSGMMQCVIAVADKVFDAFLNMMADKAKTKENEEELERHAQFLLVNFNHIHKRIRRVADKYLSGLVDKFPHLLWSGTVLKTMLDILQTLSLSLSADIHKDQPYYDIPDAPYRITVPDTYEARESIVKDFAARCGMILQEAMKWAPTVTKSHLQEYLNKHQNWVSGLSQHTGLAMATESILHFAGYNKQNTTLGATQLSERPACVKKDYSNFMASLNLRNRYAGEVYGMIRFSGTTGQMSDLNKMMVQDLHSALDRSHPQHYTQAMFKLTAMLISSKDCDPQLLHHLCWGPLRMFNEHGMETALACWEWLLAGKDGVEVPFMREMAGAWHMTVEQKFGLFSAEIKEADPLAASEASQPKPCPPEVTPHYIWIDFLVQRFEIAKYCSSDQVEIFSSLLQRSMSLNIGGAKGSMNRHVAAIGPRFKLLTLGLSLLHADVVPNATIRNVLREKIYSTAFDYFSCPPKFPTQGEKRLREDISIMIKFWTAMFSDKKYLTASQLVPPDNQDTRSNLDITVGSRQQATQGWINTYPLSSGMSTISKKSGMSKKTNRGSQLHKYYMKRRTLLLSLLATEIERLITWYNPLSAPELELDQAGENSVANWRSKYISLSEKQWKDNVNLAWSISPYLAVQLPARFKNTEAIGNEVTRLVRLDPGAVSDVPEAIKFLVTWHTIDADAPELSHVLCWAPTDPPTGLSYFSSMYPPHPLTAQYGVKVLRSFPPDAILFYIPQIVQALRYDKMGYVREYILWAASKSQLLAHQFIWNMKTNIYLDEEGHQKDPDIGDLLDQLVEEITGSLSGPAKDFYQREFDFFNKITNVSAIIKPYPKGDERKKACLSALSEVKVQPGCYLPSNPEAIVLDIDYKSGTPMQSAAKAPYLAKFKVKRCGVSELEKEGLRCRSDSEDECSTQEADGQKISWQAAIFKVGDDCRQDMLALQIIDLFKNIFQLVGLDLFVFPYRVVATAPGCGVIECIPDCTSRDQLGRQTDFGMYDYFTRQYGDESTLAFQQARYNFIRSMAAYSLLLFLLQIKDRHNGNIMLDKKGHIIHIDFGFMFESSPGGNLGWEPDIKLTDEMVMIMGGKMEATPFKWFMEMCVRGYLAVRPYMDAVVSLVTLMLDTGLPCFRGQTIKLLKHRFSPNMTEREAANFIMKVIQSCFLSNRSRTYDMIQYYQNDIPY
UniProt Q14289, whole entry, looked up: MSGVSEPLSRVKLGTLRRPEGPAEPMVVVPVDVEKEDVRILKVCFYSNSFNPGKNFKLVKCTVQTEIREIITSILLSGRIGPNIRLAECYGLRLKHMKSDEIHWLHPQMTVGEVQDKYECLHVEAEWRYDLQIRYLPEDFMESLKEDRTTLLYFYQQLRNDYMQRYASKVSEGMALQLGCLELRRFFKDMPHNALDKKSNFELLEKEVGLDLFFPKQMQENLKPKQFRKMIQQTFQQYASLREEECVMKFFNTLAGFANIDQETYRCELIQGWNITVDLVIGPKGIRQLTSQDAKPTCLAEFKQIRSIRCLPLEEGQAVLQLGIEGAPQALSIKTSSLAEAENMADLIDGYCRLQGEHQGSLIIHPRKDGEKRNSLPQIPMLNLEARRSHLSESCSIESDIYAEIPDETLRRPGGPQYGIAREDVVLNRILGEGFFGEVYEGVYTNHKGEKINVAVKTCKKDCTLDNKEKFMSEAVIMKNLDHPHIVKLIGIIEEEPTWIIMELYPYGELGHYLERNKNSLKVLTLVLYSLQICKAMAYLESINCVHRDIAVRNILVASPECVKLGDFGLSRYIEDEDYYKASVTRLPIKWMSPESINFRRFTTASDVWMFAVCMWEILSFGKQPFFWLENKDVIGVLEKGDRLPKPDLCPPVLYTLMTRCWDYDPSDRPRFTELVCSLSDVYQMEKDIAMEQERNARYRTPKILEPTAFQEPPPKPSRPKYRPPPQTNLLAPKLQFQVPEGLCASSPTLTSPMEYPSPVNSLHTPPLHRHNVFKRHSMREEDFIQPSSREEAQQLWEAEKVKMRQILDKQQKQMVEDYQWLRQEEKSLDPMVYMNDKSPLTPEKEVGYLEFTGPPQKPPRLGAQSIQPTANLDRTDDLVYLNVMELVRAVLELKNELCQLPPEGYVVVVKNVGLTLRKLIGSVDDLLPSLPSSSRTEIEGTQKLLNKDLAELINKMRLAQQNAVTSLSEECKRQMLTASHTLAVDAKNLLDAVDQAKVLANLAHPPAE
UniProt Q15131: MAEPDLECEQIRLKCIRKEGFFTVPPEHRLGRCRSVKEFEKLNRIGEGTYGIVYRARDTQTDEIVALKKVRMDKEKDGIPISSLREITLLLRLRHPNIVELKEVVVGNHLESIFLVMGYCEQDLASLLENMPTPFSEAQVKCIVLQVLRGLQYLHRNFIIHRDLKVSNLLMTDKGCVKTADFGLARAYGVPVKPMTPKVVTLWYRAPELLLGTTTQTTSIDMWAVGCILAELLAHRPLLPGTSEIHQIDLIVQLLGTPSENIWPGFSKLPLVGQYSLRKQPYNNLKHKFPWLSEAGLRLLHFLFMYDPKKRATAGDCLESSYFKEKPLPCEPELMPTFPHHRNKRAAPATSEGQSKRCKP
UniProt P31152, whole entry: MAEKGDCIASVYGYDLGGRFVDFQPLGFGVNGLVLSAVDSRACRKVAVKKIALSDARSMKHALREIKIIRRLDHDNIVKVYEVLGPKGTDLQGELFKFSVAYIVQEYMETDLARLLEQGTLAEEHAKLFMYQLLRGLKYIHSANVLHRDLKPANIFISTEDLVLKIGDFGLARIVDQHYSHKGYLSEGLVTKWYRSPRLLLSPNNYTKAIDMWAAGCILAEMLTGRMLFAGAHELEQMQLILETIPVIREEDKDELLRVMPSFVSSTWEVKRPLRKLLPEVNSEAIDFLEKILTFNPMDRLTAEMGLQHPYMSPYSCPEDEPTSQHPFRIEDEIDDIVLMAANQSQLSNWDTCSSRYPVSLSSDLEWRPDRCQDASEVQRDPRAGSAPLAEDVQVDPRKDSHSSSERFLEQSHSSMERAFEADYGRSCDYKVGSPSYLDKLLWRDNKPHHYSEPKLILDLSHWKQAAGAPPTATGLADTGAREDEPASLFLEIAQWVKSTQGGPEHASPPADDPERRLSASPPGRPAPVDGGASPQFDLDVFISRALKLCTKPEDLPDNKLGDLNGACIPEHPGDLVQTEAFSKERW
UniProt Q00534, whole entry: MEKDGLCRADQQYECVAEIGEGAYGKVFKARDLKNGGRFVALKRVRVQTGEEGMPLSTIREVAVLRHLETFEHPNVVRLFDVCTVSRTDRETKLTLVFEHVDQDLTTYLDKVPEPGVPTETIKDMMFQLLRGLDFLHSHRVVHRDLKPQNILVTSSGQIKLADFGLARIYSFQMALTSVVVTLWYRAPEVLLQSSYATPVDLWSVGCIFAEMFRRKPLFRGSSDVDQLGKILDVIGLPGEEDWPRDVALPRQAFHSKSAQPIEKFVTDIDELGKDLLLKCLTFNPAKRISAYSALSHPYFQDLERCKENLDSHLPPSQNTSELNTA

Columns and labels:
Assay in all cases: number of time points (of 5) at which kinase-Nluc abundance scored as decreased, DMSO-normalised (count); higher = more persistent destabilization
Sorafenib = compound: CNC(=O)c1cc(Oc2ccc(NC(=O)Nc3ccc(Cl)c(C(F)(F)F)c3)cc2)ccn1 [Sorafenib]; conditions: 2.5 µM; K562; 2-18 h
[1] = compound: COc1cc(N2CCC(N3CCN(C)CC3)CC2)ccc1Nc1ncc(Cl)c(Nc2ccccc2S(=O)(=O)C(C)C)n1; conditions: 2.5 µM; K562; 2-18 h
[2] = compound: COc1cc(N2CCN(C)CC2)ccc1Nc1nccc(-c2cn(C)c3cnccc23)n1; conditions: 10 µM; K562; 2-18 h
Bosutinib = compound: COc1cc(Nc2c(C#N)cnc3cc(OCCCN4CCN(C)CC4)c(OC)cc23)c(Cl)cc1Cl [Bosutinib]; conditions: 2.5 µM; K562; 2-18 h
Vandetanib = compound: COc1cc2/c(=N/c3ccc(Br)cc3F)nc[nH]c2cc1OCC1CCN(C)CC1 [Vandetanib]; conditions: 2.5 µM; K562; 2-18 h
Gefitinib = compound: COc1cc2ncnc(Nc3ccc(F)c(Cl)c3)c2cc1OCCCN1CCOCC1 [Gefitinib]; conditions: 10 µM; K562; 2-18 h
[3] = compound: COc1cc2ncnc(Nc3cccc(Br)c3)c2cc1OC; conditions: 10 µM; K562; 2-18 h
[4] = compound: COc1ccc(-c2c[nH]c3nccc(-c4ccsc4)c23)c(OC)c1; conditions: 10 µM; K562; 2-18 h
[5] = compound: COc1ccc(-c2cc(C(=O)NN=C(C)c3ccc(OC)c(OC)c3)[nH]n2)cc1; conditions: 10 µM; K562; 2-18 h
[6] = compound: COc1cc(N2CCN(C(C)=O)CC2)ccc1Nc1ncc(Cl)c(Nc2ccc(N3CCN(C(C)=O)CC3)cc2OC)n1; conditions: 10 µM; K562; 2-18 h

Measured: number of time points

DYRK2 (UniProt Q92630)
1: [4]
3: [1] | Vandetanib
4: Bosutinib
not listed: [6]
0: all other assays above

CHEK2 (UniProt O96017)
1: [1]
2: Bosutinib
not listed: [6]
0: all other assays above

FGFR2 (UniProt P21802)
3: Bosutinib
1: Vandetanib | [5]
not listed: [6]
0: all other assays above

CSNK1D (UniProt P48730)
not listed: [6]
0: all other assays above

CDK3 (UniProt Q00526)
not listed: [6]
0: all other assays above

YES1 (UniProt P07947)
not listed: [6]
0: all other assays above

LIMK1 (UniProt P53667)
1: [5]
3: Sorafenib | Bosutinib | Vandetanib
2: [1]
not listed: [6]
0: all other assays above

PLK1 (UniProt P53350)
not listed: [6]
0: all other assays above

LMTK2 (UniProt Q8IWU2)
1: [5]
3: [4]
not listed: [6]
0: all other assays above

PBK (UniProt Q96KB5)
not listed: [6]
0: all other assays above

PIK4CB (UniProt Q9UBF8)
1: Bosutinib
not listed: [6]
0: all other assays above

ARAF (UniProt P10398)
not listed: [5] | [6]
0: all other assays above

BRAF_V600E
1: Sorafenib | Vandetanib
3: Bosutinib | [4]
0: all other assays above

PAK4 (UniProt O96013)
not listed: [6]
0: all other assays above

AKT1 (UniProt P31749)
not listed: [6]
0: all other assays above

ZAP70 (UniProt P43403)
not listed: [6]
0: all other assays above

CSK (UniProt P41240)
not listed: [6]
0: all other assays above

JAK1 (UniProt P23458)
2: [4] | [5]
not listed: [6]
0: all other assays above

SYK (UniProt P43405)
not listed: [6]
0: all other assays above

PRKCA (UniProt P17252)
not listed: [6]
0: all other assays above

TEC (UniProt P42680)
1: Bosutinib | Vandetanib | [4]
not listed: [6]
0: all other assays above

RIPK1 (UniProt Q13546)
1: Sorafenib | Vandetanib
2: Bosutinib | [4]
not listed: [6]
0: all other assays above

CDK2 (UniProt P24941)
not listed: [6]
0: all other assays above

RAF1_S257L (clone: RAF1_mut) (UniProt P04049)
4: Sorafenib | Bosutinib
2: Vandetanib | [4]
not listed: [6]
0: all other assays above

MAPK1 (UniProt P28482)
not listed: [6]
0: all other assays above

DDR1 (UniProt Q08345)
3: Vandetanib
1: [1] | Bosutinib | [5]
not listed: [6]
0: all other assays above

PIK4CA (UniProt P42356)
not listed: [6]
0: all other assays above

PTK2B (UniProt Q14289)
not listed: [6]
0: all other assays above

TYK2 (UniProt P29597)
1: Bosutinib
4: Gefitinib
not listed: [6]
0: all other assays above

CDK10 (UniProt Q15131)
not listed: [6]
0: all other assays above

ULK3 (UniProt Q6PHR2)
1: [5]
3: Bosutinib | Vandetanib
not listed: [6]
0: all other assays above

CAMK2G (UniProt Q13555)
2: [5]
not listed: [6]
0: all other assays above

ERBB4_R711C (clone: ERBB4_mut) (UniProt Q15303)
1: Sorafenib | Vandetanib | [5]
0: [2] | Gefitinib | [3]
2: [1] | Bosutinib
3: [4]

DYRK1B (UniProt Q9Y463)
not listed: [6]
0: all other assays above

ROR2 (UniProt Q01974)
not listed: [6]
0: all other assays above

STK38 (UniProt Q15208)
not listed: [6]
0: all other assays above

BTK (UniProt Q06187)
not listed: [6]
0: all other assays above

MAPK4 (UniProt P31152)
not listed: [6]
0: all other assays above

NTRK2 (UniProt Q16620)
not listed: [6]
0: all other assays above

INSRR (UniProt P14616)
2: Bosutinib
3: [4]
not listed: [6]
0: all other assays above

MKNK1 (UniProt Q9BUB5)
3: Bosutinib
1: [5]
not listed: [6]
0: all other assays above

FYN (UniProt P06241)
1: [5]
2: [2]
3: Sorafenib | Bosutinib | [4]
not listed: [6]
0: all other assays above

CDK6 (UniProt Q00534)
not listed: [6]
0: all other assays above
